Laboratory results: patent publication US20140073589A1, “Amphetamine Prodrugs” (Shire AG, priority 2012, published 2014)
Some results were stated once for a whole list of compounds, not compound by compound.

test: Pharmacokinetics of prodrug and amphetamine after oral dosing to male dogs (Example 20); conditions: oral gavage of prodrug

SMILES	levels of circulating amphetamine
C[C@@H](Cc1ccccc1)NC(=O)[C@@H](C)O[C@H]1[C@H](O)[C@@H](CO)OC(O)[C@@H]1N (mixture of isomers) [Compound 4, (2R)-2-(((3R,4R,5S,6R)-3-amino-2,5-dihydroxy-6-(hydroxymethyl)tetrahydro-2H-pyran-4-yl)oxy)-N-((S)-1-phenylpropan-2-yl)propanamide]	negligible or very low levels
CC(OC(=O)C1OC(O)C(O)C(O)[C@@H]1O)C(=O)N[C@@H](C)Cc1ccccc1 (stereo in doubt) [Compound 3, (2S,3S,4S,5R)-(R)-1-oxo-1-(((S)-1-phenylpropan-2-yl)amino)propan-2-yl 3,4,5,6-tetrahydroxytetrahydro-2H-pyran-2-carboxylate]	negligible or very low levels
C[C@@H](Cc1ccccc1)NC(=O)[C@H](O)[C@@H](O)[C@H](O)[C@H](O)CO [Compound 6, (2R,3S,4R,5R)-2,3,4,5,6-pentahydroxy-N-((S)-1-phenylpropan-2-yl)hexanamide]	negligible or very low levels
CC(=O)N[C@@H]1CO[C@H](CO)[C@@H](O)[C@@H]1O[C@H](C)C(=O)N[C@@H](C)Cc1ccccc1 [Compound 11, (R)-2-(((2R,3S,4R,5R)-5-Acetamido-3-hydroxy-2-(hydroxymethyl)tetrahydro-2H-pyran-4-yl)oxy)-N-((S)-1-phenylpropan-2-yl)propanamide]	negligible or very low levels
C[C@@H](Cc1ccccc1)NC(=O)[C@H](O)[C@@H](O)[C@H](O[C@@H]1O[C@H](CO)[C@H](O)[C@H](O)[C@H]1O)[C@H](O)CO [Compound 5, (2R,3R,4R,5R)-2,3,5,6-tetrahydroxy-N-((S)-1-phenylpropan-2-yl)-4-(((2S,3R,4S,5R,6R)-3,4,5-trihydroxy-6-(hydroxymethyl)tetrahydro-2H-pyran-2-yl)oxy)hexanamide]	negligible or very low levels
CC(C)C(=O)N[C@@H](C=O)[C@@H](O[C@H](C)C(=O)N[C@@H](C)Cc1ccccc1)[C@H](O)[C@H](O)CO [Compound 18, N-((2R,3R,4R,5R)-4,5,6-trihydroxy-1-oxo-3-(((R)-1-oxo-1-(((S)-1-phenylpropan-2-yl)amino)propan-2-yl)oxy)hexan-2-yl)isobutyramide]	negligible or very low levels
C[C@@H](Cc1ccccc1)NC(=O)[C@@H](C)O[C@H]1[C@H](O)[C@@H](CO)OC[C@H]1N [Compound 12, (R)-2-(((2R,3S,4R,5R)-5-Amino-3-hydroxy-2-(hydroxymethyl)tetrahydro-2H-pyran-4-yl)oxy)-N-((S)-1-phenylpropan-2-yl)propanamide]	negligible or very low levels
CC(=O)N[C@H]1C(O)O[C@H](CO)[C@@H](O)[C@@H]1OCC(=O)N[C@@H](C)Cc1ccccc1 (stereo partly drawn) [Compound 15, 2-(((3R,4R,5S,6R)-3-acetamido-2,5-dihydroxy-6-(hydroxymethyl)tetrahydro-2H-pyran-4-yl)oxy)-N-((S)-1-phenylpropan-2-yl)acetamide]	negligible or very low levels
CO[C@H]1O[C@H](CO)[C@@H](O)[C@H](O)[C@H]1NNC(C)Cc1ccccc1 (stereo partly drawn) [Compound 10, (2R,3S,4R,5R,6S)-6-Methoxy-2-(hydroxymethyl)-5-[2-(1-phenylpropan-2-yl)hydrazin-1-yl]oxane-3,4-diol]	negligible or very low levels
CCCCCCCC(=O)N[C@@H](C=O)[C@@H](O[C@H](C)C(=O)N[C@@H](C)Cc1ccccc1)[C@H](O)[C@H](O)CO [Compound 19, N-((2R,3R,4R,5R)-4,5,6-trihydroxy-1-oxo-3-(((R)-1-oxo-1-(((S)-1-phenylpropan-2-yl)amino)propan-2-yl)oxy)hexan-2-yl)octanamide]	negligible or very low levels
CC(=O)N[C@H]1C(O)O[C@H](CO)[C@@H](O)[C@@H]1O[C@@H](C)C(=O)N[C@@H](C)Cc1ccccc1 (stereo partly drawn) [Compound 14, (2S)-2-(((3R,4R,5S,6R)-3-Acetamido-2,5-dihydroxy-6-(hydroxymethyl)tetrahydro-2H-pyran-4-yl)oxy)-N-((S)-1-phenylpropan-2-yl)propanamide]	negligible or very low levels
C[C@@H](Cc1ccccc1)NC(=O)[C@@H](O)[C@H](O)[C@H](O)[C@@H](O)C(=O)N[C@@H](C)Cc1ccccc1 [Compound 7, (2R,3S,4R,5S)-2,3,4,5-Tetrahydroxy-N1,N6-bis((S)-1-phenylpropan-2-yl)hexanediamide]	negligible or very low levels
C[C@@H](Cc1ccccc1)NC(=O)[C@@H](C)OC(=O)N[C@H]1C(O)O[C@H](CO)[C@@H](O)[C@@H]1O (stereo partly drawn) [Compound 8, (1R)-1-{[(2S)-1-Phenylpropan-2-yl]carbamoyl}ethyl N-[(3R,4R,5S,6R)-2,4,5-trihydroxy-6-(hydroxymethyl)oxan-3-yl]carbamate]	negligible or very low levels
CCO[C@H]1O[C@H](CO)[C@@H](O)[C@H](O)[C@H]1NNC(C)Cc1ccccc1 (stereo partly drawn) [Compound 9, (2R,3S,4R,5R,6S)-6-Ethoxy-2-(hydroxymethyl)-5-[2-(1-phenylpropan-2-yl)hydrazin-1-yl]oxane-3,4-diol]	negligible or very low levels
